For four substances, binding results are on record in doi:10.1101/2020.07.21.214296.

Amino acid sequences for entries named in this document (tags omitted).
UniProt Q9QX29: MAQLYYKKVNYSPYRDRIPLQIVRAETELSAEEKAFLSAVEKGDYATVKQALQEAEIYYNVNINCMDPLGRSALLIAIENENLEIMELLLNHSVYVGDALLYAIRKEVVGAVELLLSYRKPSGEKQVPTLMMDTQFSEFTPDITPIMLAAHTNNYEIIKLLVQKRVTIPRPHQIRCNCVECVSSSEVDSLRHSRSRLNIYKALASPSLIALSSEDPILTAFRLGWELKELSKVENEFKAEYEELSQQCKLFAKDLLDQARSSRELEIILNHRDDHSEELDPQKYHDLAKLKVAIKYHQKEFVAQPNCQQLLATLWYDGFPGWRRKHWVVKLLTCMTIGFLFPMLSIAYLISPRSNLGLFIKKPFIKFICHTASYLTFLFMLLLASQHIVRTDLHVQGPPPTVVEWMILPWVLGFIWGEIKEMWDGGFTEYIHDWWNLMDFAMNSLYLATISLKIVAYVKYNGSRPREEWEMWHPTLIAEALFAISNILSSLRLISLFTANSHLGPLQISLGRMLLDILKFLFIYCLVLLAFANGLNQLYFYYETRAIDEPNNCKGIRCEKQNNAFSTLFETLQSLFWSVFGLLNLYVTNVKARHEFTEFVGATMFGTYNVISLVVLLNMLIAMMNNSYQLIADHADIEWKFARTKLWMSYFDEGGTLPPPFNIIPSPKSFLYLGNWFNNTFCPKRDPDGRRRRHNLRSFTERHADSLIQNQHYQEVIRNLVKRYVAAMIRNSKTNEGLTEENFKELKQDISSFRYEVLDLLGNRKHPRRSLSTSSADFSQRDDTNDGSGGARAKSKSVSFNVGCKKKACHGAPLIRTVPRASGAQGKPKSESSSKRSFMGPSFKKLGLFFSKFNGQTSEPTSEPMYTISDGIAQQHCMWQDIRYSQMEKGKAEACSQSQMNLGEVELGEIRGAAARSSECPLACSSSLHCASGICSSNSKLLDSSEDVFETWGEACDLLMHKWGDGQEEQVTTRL
UniProt O88427: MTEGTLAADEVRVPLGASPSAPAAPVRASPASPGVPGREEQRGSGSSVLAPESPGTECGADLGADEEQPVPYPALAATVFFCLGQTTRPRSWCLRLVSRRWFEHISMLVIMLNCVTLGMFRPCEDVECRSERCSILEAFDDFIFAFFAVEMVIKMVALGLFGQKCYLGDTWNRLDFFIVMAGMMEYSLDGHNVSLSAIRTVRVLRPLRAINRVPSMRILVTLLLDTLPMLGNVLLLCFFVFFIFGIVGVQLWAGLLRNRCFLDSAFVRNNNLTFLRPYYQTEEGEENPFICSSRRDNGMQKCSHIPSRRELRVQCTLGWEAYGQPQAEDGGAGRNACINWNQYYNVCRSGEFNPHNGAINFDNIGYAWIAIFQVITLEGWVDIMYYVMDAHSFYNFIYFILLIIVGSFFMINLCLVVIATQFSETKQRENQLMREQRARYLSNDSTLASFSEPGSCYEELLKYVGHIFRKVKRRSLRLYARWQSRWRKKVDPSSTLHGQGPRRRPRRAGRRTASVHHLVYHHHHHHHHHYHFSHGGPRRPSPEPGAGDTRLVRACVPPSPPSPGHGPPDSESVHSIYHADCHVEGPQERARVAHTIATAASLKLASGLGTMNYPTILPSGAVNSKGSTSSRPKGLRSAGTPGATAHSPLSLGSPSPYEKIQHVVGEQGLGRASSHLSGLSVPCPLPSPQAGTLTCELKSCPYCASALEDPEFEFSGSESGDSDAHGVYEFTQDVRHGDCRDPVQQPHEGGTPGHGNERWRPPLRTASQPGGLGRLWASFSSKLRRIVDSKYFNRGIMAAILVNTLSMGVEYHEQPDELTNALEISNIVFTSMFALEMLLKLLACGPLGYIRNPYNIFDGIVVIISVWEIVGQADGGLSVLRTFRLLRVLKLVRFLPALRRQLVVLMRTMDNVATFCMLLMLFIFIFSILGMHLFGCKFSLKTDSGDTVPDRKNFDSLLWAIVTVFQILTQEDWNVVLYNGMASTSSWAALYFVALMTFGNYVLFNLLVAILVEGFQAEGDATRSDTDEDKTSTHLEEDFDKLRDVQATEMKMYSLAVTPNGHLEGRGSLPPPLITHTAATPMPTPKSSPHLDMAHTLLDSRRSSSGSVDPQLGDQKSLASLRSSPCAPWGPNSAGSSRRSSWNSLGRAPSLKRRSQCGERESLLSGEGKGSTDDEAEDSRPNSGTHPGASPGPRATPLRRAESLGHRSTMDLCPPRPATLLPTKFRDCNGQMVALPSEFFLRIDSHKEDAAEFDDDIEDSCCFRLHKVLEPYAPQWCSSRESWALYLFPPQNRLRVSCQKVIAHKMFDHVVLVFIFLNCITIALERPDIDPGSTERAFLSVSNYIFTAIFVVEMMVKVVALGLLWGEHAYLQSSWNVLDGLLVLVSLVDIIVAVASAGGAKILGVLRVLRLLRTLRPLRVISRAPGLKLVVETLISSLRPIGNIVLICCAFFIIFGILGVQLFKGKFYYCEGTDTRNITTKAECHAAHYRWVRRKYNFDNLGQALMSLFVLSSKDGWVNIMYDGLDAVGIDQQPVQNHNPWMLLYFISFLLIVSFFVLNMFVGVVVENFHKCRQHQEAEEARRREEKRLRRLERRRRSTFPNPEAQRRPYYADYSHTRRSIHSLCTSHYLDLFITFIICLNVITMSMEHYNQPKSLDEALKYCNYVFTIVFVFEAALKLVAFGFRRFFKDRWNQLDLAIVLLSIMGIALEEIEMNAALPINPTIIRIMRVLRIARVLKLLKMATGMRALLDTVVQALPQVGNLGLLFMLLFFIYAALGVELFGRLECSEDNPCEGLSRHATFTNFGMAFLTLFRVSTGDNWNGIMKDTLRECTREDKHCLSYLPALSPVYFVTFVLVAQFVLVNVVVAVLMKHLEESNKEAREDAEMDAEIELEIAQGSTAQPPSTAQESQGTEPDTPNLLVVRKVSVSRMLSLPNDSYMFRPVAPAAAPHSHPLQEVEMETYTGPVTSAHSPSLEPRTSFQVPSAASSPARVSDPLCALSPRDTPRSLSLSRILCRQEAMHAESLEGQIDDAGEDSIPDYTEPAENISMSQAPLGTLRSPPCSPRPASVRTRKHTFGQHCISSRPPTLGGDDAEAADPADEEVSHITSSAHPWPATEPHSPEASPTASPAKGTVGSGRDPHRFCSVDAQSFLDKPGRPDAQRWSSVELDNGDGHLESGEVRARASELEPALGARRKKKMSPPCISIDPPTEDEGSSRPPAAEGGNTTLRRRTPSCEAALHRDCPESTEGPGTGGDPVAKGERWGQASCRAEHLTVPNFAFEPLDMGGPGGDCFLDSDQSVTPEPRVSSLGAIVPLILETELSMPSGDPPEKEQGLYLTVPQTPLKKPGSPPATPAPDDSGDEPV
UniProt Q5SUF7: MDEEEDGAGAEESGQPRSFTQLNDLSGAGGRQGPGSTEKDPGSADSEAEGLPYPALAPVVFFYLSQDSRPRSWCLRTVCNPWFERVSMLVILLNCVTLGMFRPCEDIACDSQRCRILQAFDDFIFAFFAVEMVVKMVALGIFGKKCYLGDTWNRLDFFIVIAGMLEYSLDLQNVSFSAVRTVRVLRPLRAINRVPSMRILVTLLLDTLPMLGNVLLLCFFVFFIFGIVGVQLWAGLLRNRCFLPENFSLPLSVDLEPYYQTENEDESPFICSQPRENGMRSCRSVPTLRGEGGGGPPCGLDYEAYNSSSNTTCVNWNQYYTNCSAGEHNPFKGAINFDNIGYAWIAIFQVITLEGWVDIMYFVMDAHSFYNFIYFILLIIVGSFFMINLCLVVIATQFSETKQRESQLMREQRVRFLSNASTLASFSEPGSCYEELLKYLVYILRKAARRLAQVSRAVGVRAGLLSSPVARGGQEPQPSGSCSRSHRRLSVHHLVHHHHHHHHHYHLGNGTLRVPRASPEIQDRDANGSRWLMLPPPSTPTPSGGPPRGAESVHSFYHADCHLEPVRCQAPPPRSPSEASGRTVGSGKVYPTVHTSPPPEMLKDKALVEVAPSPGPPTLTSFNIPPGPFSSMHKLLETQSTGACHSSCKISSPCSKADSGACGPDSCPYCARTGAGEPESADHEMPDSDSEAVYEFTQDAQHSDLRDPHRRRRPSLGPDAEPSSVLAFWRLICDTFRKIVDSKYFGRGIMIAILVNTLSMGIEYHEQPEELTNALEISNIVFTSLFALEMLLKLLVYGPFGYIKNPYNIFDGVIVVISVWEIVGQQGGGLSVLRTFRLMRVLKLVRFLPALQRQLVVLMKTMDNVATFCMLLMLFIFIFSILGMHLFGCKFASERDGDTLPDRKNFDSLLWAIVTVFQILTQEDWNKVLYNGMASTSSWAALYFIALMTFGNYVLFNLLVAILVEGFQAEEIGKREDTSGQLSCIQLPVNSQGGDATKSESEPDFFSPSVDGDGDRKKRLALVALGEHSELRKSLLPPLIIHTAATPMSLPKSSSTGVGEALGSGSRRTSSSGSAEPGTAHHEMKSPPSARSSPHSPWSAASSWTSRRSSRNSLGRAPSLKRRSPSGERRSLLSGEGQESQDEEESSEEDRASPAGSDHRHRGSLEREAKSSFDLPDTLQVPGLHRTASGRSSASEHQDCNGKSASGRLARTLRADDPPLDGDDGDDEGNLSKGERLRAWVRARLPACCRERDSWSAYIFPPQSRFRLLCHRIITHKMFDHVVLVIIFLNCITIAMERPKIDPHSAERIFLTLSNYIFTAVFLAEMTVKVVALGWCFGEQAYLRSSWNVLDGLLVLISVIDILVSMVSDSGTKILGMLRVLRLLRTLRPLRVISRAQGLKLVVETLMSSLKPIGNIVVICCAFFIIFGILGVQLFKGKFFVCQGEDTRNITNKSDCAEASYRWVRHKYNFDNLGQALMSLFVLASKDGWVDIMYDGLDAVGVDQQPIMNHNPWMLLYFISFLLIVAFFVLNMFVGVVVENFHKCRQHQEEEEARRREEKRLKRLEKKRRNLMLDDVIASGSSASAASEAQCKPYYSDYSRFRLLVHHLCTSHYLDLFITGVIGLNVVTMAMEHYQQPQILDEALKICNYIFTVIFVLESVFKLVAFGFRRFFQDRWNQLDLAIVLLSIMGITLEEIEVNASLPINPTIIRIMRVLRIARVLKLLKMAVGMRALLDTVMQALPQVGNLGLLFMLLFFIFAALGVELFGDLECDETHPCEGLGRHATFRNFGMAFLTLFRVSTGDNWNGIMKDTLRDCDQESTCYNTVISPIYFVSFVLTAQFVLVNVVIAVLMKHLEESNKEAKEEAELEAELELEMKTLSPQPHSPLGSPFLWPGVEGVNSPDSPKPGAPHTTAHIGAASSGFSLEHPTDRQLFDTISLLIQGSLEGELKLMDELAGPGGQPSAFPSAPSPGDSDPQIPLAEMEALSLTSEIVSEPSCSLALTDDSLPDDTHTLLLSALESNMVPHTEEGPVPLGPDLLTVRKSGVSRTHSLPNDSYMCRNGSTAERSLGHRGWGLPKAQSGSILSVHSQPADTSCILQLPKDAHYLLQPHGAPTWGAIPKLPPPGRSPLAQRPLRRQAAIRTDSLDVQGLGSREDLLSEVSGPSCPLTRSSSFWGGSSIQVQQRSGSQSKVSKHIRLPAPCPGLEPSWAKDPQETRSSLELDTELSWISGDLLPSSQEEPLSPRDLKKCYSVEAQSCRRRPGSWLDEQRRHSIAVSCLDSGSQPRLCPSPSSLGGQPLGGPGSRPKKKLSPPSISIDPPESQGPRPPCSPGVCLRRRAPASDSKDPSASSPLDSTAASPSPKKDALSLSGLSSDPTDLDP
UniProt Q61056: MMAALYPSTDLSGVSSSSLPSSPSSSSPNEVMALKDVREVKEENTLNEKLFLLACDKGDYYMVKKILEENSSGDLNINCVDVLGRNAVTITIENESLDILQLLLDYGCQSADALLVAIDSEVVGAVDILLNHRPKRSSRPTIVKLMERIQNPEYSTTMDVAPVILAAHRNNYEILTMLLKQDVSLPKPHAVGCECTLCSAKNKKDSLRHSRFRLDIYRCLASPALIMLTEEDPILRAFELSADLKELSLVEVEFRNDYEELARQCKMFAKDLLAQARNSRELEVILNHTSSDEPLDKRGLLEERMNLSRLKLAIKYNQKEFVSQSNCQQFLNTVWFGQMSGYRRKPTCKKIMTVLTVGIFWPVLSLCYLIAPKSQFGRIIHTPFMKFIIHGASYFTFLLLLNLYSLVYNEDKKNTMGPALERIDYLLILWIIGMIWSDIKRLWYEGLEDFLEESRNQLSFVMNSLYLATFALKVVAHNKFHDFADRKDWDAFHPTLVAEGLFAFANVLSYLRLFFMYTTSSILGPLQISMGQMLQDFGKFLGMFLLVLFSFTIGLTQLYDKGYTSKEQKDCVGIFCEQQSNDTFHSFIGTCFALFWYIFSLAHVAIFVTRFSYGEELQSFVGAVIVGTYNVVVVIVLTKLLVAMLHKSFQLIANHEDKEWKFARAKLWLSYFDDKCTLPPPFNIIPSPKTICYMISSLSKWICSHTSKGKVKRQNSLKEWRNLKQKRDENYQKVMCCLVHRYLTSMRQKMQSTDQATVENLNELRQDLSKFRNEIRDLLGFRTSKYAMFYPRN

What all share (test): co-IP
For experiment [1], the target named is TRPC5 channel (Transient Receptor Potential Cation 5) (mouse (endogenous in mouse brain and hypothalamus)) (UniProt Q9QX29).
The target in experiment [2] is CaV3.2 channel (T-type calcium channel α1H) (mouse (endogenous in mouse brain and hypothalamus)) (UniProt O88427).
Experiment [3] addresses CaV3.1 channel (T-type calcium channel α1G) (mouse (endogenous in mouse brain and hypothalamus)) (UniProt Q5SUF7).

No constants are given. Whether binding was seen depends on the method and setting. In cells and extracts the contact can be indirect. Some entries that bind do so weakly or less than the wild type.

With “CaV3.1 channel (T-type calcium channel α1G) (from UniProt Q5SUF7 1-2381)”, in experiment [1], the binding entry is “binds”.
Consider “CaV3.2 channel (T-type calcium channel α1H) (from UniProt O88427 1-2365)”, for which, in experiment [1], the binding entry is given as “binds”.
With “TRPC1 channel (from UniProt Q61056 1-793)”, the binding result in experiment [1], in experiment [2] and in experiment [3] was “binds” throughout.
For the substance “TRPC5 channel (Transient Receptor Potential Cation 5) (from UniProt Q9QX29 1-975)”, the binding result in experiment [2] and in experiment [3] was “binds” in each case.
